No constants are given. Whether binding was seen depends on the method and setting. Binding seen in cells or lysates may run through a third protein. Some binding calls cover weakened binding; strength is not graded here. Tags and fused reporters may be left off the sequences shown.
Target: T1, Flag-SPAG5 (sperm-associated antigen 5) (UniProt Q96R06)
T1 sequence: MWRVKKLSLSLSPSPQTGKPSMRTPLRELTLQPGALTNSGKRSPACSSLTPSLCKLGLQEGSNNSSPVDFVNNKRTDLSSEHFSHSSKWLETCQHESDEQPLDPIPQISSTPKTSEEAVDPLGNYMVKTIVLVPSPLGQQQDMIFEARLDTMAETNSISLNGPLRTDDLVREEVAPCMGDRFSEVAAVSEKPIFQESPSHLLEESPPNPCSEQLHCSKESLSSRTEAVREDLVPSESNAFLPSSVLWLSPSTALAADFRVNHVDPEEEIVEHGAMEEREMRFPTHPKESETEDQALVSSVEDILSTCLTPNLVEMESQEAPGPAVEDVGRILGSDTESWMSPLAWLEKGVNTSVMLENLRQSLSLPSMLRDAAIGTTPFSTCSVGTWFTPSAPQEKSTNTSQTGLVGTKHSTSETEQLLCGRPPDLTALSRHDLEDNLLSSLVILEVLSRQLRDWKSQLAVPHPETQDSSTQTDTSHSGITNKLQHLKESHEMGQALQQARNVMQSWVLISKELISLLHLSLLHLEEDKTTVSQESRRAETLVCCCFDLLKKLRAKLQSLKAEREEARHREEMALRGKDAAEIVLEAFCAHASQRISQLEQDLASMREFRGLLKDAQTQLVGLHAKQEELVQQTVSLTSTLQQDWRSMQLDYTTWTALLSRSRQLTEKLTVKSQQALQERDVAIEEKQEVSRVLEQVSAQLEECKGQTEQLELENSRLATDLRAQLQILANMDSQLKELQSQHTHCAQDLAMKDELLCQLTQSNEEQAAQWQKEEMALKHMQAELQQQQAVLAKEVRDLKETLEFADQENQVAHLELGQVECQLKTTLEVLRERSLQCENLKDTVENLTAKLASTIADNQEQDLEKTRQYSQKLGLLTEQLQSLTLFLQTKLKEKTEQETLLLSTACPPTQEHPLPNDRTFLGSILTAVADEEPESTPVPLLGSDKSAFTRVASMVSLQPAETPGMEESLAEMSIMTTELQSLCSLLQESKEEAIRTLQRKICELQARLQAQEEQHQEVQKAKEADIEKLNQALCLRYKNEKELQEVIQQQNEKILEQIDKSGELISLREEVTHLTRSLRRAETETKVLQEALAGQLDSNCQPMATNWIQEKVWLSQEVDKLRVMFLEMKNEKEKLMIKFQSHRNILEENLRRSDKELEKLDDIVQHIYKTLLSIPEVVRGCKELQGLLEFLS
Assay: co-IP; lysates of MDA-MB-231 and BT549 cells with Flag-SPAG5 in NP-40 lysis buffer (50 mM Tris-HCl pH 8, 150 mM NaCl, 0.5% NP-40, 10% glycerol, 2 mM MgCl2, 1 mM EDTA); 3 ug Flag antibody overnight at 4 °C, protein G Sepharose beads; western blot

binding: binds
B1: c-MYC binding protein (MYCBP) (protein, UniProt Q99417 1-103)
chain: MAHYKAADSKREQFRRYLEKSGVLDTLTKVLVALYEEPEKPNSALDFLKHHLGAATPENPEIELLRLELAEMKEKYEAIVEENKKLKAKLAQYEPPQEEKRAE

From paper PMC6367803
